According to patent US20160201132A1, “GENE EXPRESSION BIOMARKERS OF LAQUINIMOD RESPONSIVENESS” (Teva Pharmaceutical Industries Ltd., priority 2013, published 2016):
Further values from the same series stand in other lists.

System: PBMC of RRMS patients
Assay: Gene expression microarray analysis (HG-U133A-2) of PBMC from RRMS patients treated with LAQ, ancillary study to ALLEGRO
Format: in vivo, human
Excerpt: The goal of this ancillary study was to characterize gene expression changes and corresponding biological mechanisms induced in PBMC of RRMS patients by LAQ treatment. According to ALLEGRO clinical trial inclusion criteria, 25 patients were randomly assigned to receive LAQ (n=13, age 38.8±2.3 years, female/male ratio: 8/5) or placebo (n=12, age 37.2±3.4 years, female/male ratio: 8/4).
Peripheral blood samples were obtained from RRMS patients at baseline before start of LAQ treatment or placebo, after 0, 1, 6 and 24 month of treatment (visit 0, 1, 6 and 7 according to ALLEGRO clinical trial protocol correspondently) for gene microarray analysis.
Briefly, 1) Peripheral blood mononuclear cells (PBMC) were obtained from RRMS patients that participated in ALLEGRO and were treated daily with 0.6 mg LAQ or placebo. PBMC were subjected for gene expression analysis (HU-133A-2-Affymatrix arrays) at baseline and at 1 and 6 months of LAQ treatment; 2) Data was analyzed by Partek Genomics Solution software. Most informative genes (MIGs) were defined as those that differentiated between groups with p<0.01. Gene functional annotation, enrichment and pathway analysis were performed by Ingenuity software. For each time point, genes that changed in placebo group were excluded from further analysis; and 3) Verification of LAQ related mechanism was performed by Western blot.
PBMC were extracted from 15 ml peripheral blood, separated by Ficoll-Hypaque gradient. Total RNA was extracted using both Trizol (Invitrogen, USA) and Phase-Lock-Gel columns (Eppendorf, Germany) including a DNase digestion step. RNA integrity was assessed by RNA Experion automated electrophoresis system (Bio-Rad Laboratories, Hercules, Calif.).
Probe synthesis using 3 μg total RNA, hybridization, detection, and scanning was performed according to the standard Affymetrix, Inc. USA protocols; cDNA was synthesized using the Two-Cycle cDNA Synthesis Kit (Affymetrix, Inc., USA), and in-vitro transcription performed with the GeneChip IVT Labeling Kit (Affymetrix, Inc., USA). The biotin-labeled IVT-RNA was hybridized to HG-U133A-2 arrays containing 18,400 gene transcripts, each corresponding to 14,500 well-annotated human genes, washed in a GeneChip Fluidics Station 450 (Hewlett Packard, USA, GeneArray-™ scanner G2500A) and scanned according to the manufacturer's protocol (Affymetrix, Inc., USA).
Data analysis was performed on Partek Genomics Solution software (www.partek.com; Partek Incorporated, St. Louis, Mo.). Expression values were computed from raw CEL files by applying the Robust Multi-Chip Average (RMA) background correction algorithm. RMA correction included: 1) values background correction; 2) quintile normalization; 3) log 2 transformation; and 4) median polish summarization. The ANOVA, Repeated Measures and correlation analysis implicated in Partek software ware applied to evaluate LAQ effects. Most informative genes MIGs were defined as those that differentiated between experimental groups with p<0.01. All p-values were calculated for False Discovery Rate (FDR) multiple test correction at p=0.05.
Additionally, significance of individual genes was tested by parametric T-test and non parametric Mann-Whitney test using Bootstrapping approach based on repeated permutations of the data with 5% FDR for multiple testing.
Gene functional annotation, enrichment, and pathway analyses to identify the leading biological pathways that operated under LAQ treatment were performed by Ingenuity Pathways Analysis software (www.ingenuity.com).
ANOVA analysis was used to compare PBMC gene expression after 1, 6 or 24 month of LAQ treatment with baseline gene expression.
For each time point inventors performed analysis source of variation in dataset. (FIG. 1). Age, gender and batch effects were considered as confounders regarding LAQ or Placebo related changes. For each time point genes associated with Placebo effect were evaluated and excluded from further analysis. […]

## CCN(C(=O)c1c(O)c2c(Cl)cccc2n(C)c1=O)c1ccccc1 [LAQ, 5-chloro-N-ethyl-4-hydroxy-1-methyl-2-oxo-N-phenyl-1,2-dihydroquinoline-3-carboxamide]
208931_s_at ILF3, one month of treatment vs baseline
  Fold-Change (1.0 vs. 0.0): −1.148
208989_s_at KDM2A, one month of treatment vs baseline
  Fold-Change (1.0 vs. 0.0): −1.106
209423_s_at PHF20, one month of treatment vs baseline
  Fold-Change (1.0 vs. 0.0): −1.149
209586_s_at PRUNE, one month of treatment vs baseline
  Fold-Change (1.0 vs. 0.0): −1.237
209651_at TGFB1I1, one month of treatment vs baseline
  Fold-Change (1.0 vs. 0.0): −1.766
209767_s_at GP1BB /// SEPT5, one month of treatment vs baseline
  Fold-Change (1.0 vs. 0.0): −1.471
209826_at EGFL8 /// PPT2, one month of treatment vs baseline
  Fold-Change (1.0 vs. 0.0): −1.1054
209840_s_at LRRN3, one month of treatment vs baseline
  Fold-Change (1.0 vs. 0.0): 1.861
210074_at CTSL2, one month of treatment vs baseline
  Fold-Change (1.0 vs. 0.0): −1.243
210183_x_at PNN, one month of treatment vs baseline
  Fold-Change (1.0 vs. 0.0): −1.103
210360_s_at MTSS1, one month of treatment vs baseline
  Fold-Change (1.0 vs. 0.0): −1.166
210988_s_at PRUNE, one month of treatment vs baseline
  Fold-Change (1.0 vs. 0.0): −1.301
211026_s_at MGLL, one month of treatment vs baseline
  Fold-Change (1.0 vs. 0.0): −1.603
211059_s_at GOLGA2, one month of treatment vs baseline
  Fold-Change (1.0 vs. 0.0): −1.144
211154_at THPO, one month of treatment vs baseline
  Fold-Change (1.0 vs. 0.0): −1.117
211334_at MRE11A, one month of treatment vs baseline
  Fold-Change (1.0 vs. 0.0): −1.122
211449_at MSH6, one month of treatment vs baseline
  Fold-Change (1.0 vs. 0.0): −1.114
211522_s_at GNRHR, one month of treatment vs baseline
  Fold-Change (1.0 vs. 0.0): −1.121
211567_at (no gene symbol), one month of treatment vs baseline
  Fold-Change (1.0 vs. 0.0): −1.126
211728_s_at HYAL3, one month of treatment vs baseline
  Fold-Change (1.0 vs. 0.0): −1.168
211858_x_at GNAS, one month of treatment vs baseline
  Fold-Change (1.0 vs. 0.0): −1.136
211982_x_at XPO6, one month of treatment vs baseline
  Fold-Change (1.0 vs. 0.0): −1.073
212151_at PBX1, one month of treatment vs baseline
  Fold-Change (1.0 vs. 0.0): −1.5597
212692_s_at LRBA, one month of treatment vs baseline
  Fold-Change (1.0 vs. 0.0): −1.1862
212742_at RNF115, one month of treatment vs baseline
  Fold-Change (1.0 vs. 0.0): −1.091
213046_at PABPN1, one month of treatment vs baseline
  Fold-Change (1.0 vs. 0.0): −1.1431
213236_at SASH1, one month of treatment vs baseline
  Fold-Change (1.0 vs. 0.0): 1.905
213306_at MPDZ, one month of treatment vs baseline
  Fold-Change (1.0 vs. 0.0): −1.102
213431_x_at SFI1, one month of treatment vs baseline
  Fold-Change (1.0 vs. 0.0): −1.069
213598_at (no gene symbol), one month of treatment vs baseline
  Fold-Change (1.0 vs. 0.0): −1.221
213746_s_at FLNA, one month of treatment vs baseline
  Fold-Change (1.0 vs. 0.0): −1.164
213765_at MFAP5, one month of treatment vs baseline
  Fold-Change (1.0 vs. 0.0): −1.092
213828_x_at H3F3A /// H3F3B /// LOC440926, one month of treatment vs baseline
  Fold-Change (1.0 vs. 0.0): −1.097
213864_s_at NAP1L1, one month of treatment vs baseline
  Fold-Change (1.0 vs. 0.0): −1.139
213908_at WHAMML1 /// WHAMML2, one month of treatment vs baseline
  Fold-Change (1.0 vs. 0.0): −1.37
214308_s_at HGD, one month of treatment vs baseline
  Fold-Change (1.0 vs. 0.0): −1.648
214369_s_at RASGRP2, one month of treatment vs baseline
  Fold-Change (1.0 vs. 0.0): −1.106
214514_at MCM3AP, one month of treatment vs baseline
  Fold-Change (1.0 vs. 0.0): −1.132
214577_at MAP1B, one month of treatment vs baseline
  Fold-Change (1.0 vs. 0.0): −1.148
214917_at PRKAA1, one month of treatment vs baseline
  Fold-Change (1.0 vs. 0.0): −1.173
214938_x_at HMGB1, one month of treatment vs baseline
  Fold-Change (1.0 vs. 0.0): −1.084
214958_s_at TMC6, one month of treatment vs baseline
  Fold-Change (1.0 vs. 0.0): −1.125
215101_s_at CXCL5, one month of treatment vs baseline
  Fold-Change (1.0 vs. 0.0): −1.667
215122_at TBX6, one month of treatment vs baseline
  Fold-Change (1.0 vs. 0.0): −1.145
215306_at (gene symbol not given), one month of treatment
  Fold-Change (1.0 vs. 0.0): −1.226
215653_at (no gene symbol), one month of treatment vs baseline
  Fold-Change (1.0 vs. 0.0): −1.115
215813_s_at PTGS1, one month of treatment vs baseline
  Fold-Change (1.0 vs. 0.0): −1.556
215993_at (gene symbol not given), one month of treatment
  Fold-Change (1.0 vs. 0.0): −1.075
216231_s_at B2M, one month of treatment vs baseline
  Fold-Change (1.0 vs. 0.0): −1.054
216261_at ITGB3, one month of treatment vs baseline
  Fold-Change (1.0 vs. 0.0): −1.378
216463_at (no gene symbol), one month of treatment vs baseline
  Fold-Change (1.0 vs. 0.0): −1.145
216513_at DCT, one month of treatment vs baseline
  Fold-Change (1.0 vs. 0.0): −1.165
216623_x_at TOX3, one month of treatment vs baseline
  Fold-Change (1.0 vs. 0.0): −1.098
216625_at (no gene symbol), one month of treatment vs baseline
  Fold-Change (1.0 vs. 0.0): −1.101
216867_s_at PDGFA, one month of treatment vs baseline
  Fold-Change (1.0 vs. 0.0): −1.3116
216881_x_at PRB4, one month of treatment vs baseline
  Fold-Change (1.0 vs. 0.0): −1.117
216896_at COL4A3, one month of treatment vs baseline
  Fold-Change (1.0 vs. 0.0): −1.141
217083_at IGHG1, one month of treatment vs baseline
  Fold-Change (1.0 vs. 0.0): −1.164
217335_at FLJ11292, one month of treatment vs baseline
  Fold-Change (1.0 vs. 0.0): −1.159
217673_x_at GNAS, one month of treatment vs baseline
  Fold-Change (1.0 vs. 0.0): −1.132
217705_at PRKD1, one month of treatment vs baseline
  Fold-Change (1.0 vs. 0.0): −1.082
217736_s_at EIF2AK1, one month of treatment vs baseline
  Fold-Change (1.0 vs. 0.0): −1.235
217912_at DUS1L, one month of treatment vs baseline
  Fold-Change (1.0 vs. 0.0): −1.083
217928_s_at SAPS3, one month of treatment vs baseline
  Fold-Change (1.0 vs. 0.0): −1.102
217963_s_at NGFRAP1, one month of treatment vs baseline
  Fold-Change (1.0 vs. 0.0): −1.41
218117_at RBX1, one month of treatment vs baseline
  Fold-Change (1.0 vs. 0.0): −1.1728
218243_at RUFY1, one month of treatment vs baseline
  Fold-Change (1.0 vs. 0.0): −1.437
218704_at RNF43, one month of treatment vs baseline
  Fold-Change (1.0 vs. 0.0): −1.149
219202_at RHBDF2, one month of treatment vs baseline
  Fold-Change (1.0 vs. 0.0): −1.122
219503_s_at TMEM40, one month of treatment vs baseline
  Fold-Change (1.0 vs. 0.0): −1.457
219705_at QSER1, one month of treatment vs baseline
  Fold-Change (1.0 vs. 0.0): −1.178
219779_at ZFHX4, one month of treatment vs baseline
  Fold-Change (1.0 vs. 0.0): −1.167
219857_at C10orf81, one month of treatment vs baseline
  Fold-Change (1.0 vs. 0.0): −1.185
219983_at HRASLS, one month of treatment vs baseline
  Fold-Change (1.0 vs. 0.0): −1.53
220094_s_at CCDC90A, one month of treatment vs baseline
  Fold-Change (1.0 vs. 0.0): −1.32
220336_s_at GP6, one month of treatment vs baseline
  Fold-Change (1.0 vs. 0.0): −1.613
220518_at ABI3BP, one month of treatment vs baseline
  Fold-Change (1.0 vs. 0.0): −1.134
220847_x_at ZNF221, one month of treatment vs baseline
  Fold-Change (1.0 vs. 0.0): 1.155
221160_s_at CABP5, one month of treatment vs baseline
  Fold-Change (1.0 vs. 0.0): −1.562
221555_x_at CDC14B, one month of treatment vs baseline
  Fold-Change (1.0 vs. 0.0): −1.353
221746_at UBL4A, one month of treatment vs baseline
  Fold-Change (1.0 vs. 0.0): −1.2092
221748_s_at TNS1, one month of treatment vs baseline
  Fold-Change (1.0 vs. 0.0): −1.4944
